Measurements published in paper PMC11616693.

The chains behind the UniProt entries cited, without tags or fusion partners. Where a name states a change or a piece, a line headed by the entry shows the natural chain unless it says otherwise.
UniProt P06756: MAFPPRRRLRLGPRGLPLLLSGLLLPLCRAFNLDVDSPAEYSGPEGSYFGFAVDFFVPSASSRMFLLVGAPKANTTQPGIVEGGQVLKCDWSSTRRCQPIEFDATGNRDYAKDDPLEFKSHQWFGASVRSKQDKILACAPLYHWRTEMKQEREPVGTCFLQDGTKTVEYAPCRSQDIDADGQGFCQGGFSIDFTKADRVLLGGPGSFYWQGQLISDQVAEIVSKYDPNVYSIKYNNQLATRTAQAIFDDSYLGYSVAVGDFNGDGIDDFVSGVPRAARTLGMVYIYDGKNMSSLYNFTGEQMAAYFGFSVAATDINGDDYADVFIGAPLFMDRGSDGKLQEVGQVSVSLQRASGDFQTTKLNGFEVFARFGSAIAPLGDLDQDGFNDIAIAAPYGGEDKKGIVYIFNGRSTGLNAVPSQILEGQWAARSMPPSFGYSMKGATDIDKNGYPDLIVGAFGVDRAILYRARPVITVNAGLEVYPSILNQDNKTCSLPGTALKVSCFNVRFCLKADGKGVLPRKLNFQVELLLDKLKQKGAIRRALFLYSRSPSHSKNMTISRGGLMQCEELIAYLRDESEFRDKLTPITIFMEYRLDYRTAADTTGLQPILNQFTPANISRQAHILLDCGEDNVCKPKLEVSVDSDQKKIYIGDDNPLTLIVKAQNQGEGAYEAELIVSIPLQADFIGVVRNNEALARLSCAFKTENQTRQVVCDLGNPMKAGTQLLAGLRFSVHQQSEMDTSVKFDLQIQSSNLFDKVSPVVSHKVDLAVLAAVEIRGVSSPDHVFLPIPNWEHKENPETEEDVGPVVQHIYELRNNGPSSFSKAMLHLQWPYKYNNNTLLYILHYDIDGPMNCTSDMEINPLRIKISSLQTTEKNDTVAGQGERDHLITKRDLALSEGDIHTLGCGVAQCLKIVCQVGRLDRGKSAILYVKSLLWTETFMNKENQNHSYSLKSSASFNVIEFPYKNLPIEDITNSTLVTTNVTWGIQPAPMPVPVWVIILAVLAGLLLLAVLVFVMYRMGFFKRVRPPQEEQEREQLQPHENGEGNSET
UniProt P20340: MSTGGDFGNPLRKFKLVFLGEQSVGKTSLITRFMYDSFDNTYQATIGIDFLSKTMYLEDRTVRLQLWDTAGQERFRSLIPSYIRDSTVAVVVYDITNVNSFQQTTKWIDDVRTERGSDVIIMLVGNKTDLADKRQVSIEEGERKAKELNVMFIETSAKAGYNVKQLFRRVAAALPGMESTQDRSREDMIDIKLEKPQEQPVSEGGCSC
UniProt P51149: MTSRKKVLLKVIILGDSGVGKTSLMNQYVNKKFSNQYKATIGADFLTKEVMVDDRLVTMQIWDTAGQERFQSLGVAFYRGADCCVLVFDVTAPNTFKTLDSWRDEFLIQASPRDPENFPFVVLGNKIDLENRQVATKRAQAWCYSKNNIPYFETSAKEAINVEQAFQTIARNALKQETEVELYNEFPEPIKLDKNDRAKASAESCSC
UniProt P62491: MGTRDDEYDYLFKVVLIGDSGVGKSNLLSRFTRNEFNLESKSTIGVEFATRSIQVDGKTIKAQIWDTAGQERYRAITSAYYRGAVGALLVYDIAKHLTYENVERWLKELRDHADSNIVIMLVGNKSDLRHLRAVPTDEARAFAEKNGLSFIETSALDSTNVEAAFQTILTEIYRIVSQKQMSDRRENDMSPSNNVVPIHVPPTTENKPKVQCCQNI

Biological target: αVβ6 integrin (human (endogenous in BT474 and HER2-18)) (UniProt P06756)
Test: affinity purification with mass spectrometry; integrin-associated adhesion complexes (IACs) isolated from HER2-18 or BT474 cells plated 2.5 h on LAP (compared with Coll-I or FN), cross-linked with 3 mM DTBP, cell bodies removed, label-free MS; also BT474 trastuzumab-sensitive cells with or without 96 h trastuzumab (10 μg/ml) on LAP

Row | binding | Substance
1 | binds | RAB6A (from UniProt P20340 1-208)
2 | binds | RAB7A (from UniProt P51149 1-207)
3 | binds | RAB11A (from UniProt P62491 1-216)

Results are given in words; binding and its absence hold for the method and conditions named. Binding seen in cells or lysates may run through a third protein. Here binding means that the protein was enriched with, or labelled near, the bait; the list need not be complete.
